Data taken from PubChem BioAssay AID540256 (National Center for Advancing Translational Sciences (NCATS), 2011).
About 3,700 (1.2%) of roughly 300,000 compounds were called active. This list was built around the results that the source calls inconclusive (neither active nor inactive); the mix of calls is not that of the screen. Calls follow the shape of the full dose curve; tested in HEK293 cells. Where the call is inconclusive, the potency comes from a doubtful curve fit.

Assay: qHTS for Inhibitors of binding or entry into cells for Lassa Virus; also: nearly all actives have a fitted effect of over 50% in size
Conditions: Lassa virus pseudotype entry inhibition, cell reporter; series mostly up to 37.9 µM
Potency is read from the fitted curve at half-maximal effect.

Structure (SMILES)	Potency
CCCOc1ccc(C(=O)N2CCN(c3ccc(NC(=O)CC)cc3Cl)CC2)cc1	inconclusive: 16.4 µM [inhibitor, single point]
CC(NC(=S)NCCN1CCOCC1)C12CC3CC(CC(C3)C1)C2 (centres undefined)	inconclusive: 35.5 µM [inhibitor, single point]
COc1ccc(C2/C(=C(\O)c3cc(C)ccc3C)C(=O)C(=O)N2CCN(C)C)cc1OC (centres undefined)	inconclusive: 6.31 µM [inhibitor, single point]
CCN(CCNCC(O)COCc1ccc(Cl)cc1)c1cccc(C)c1 (centres undefined)	inconclusive: 35.5 µM [inhibitor, single point]
Cc1ccc(Cn2c(=N)n(CC(O)COc3ccccc3)c3ccccc32)cc1 (centres undefined)	inconclusive: 35.5 µM [inhibitor, single point]
Cc1cc(=O)oc2cc(OCC3CC(c4ccccc4)=NO3)ccc12 (centres undefined)	inconclusive: 0.184 µM [inhibitor, full curve]
O=C(O)c1cc2c(=O)c3ccccc3oc2nc1C(F)(F)F	inactive
CCCN(CCC)c1nc(-c2ccccc2F)nc2ccccc12	inactive
O=C(Nc1cccc(Cl)c1N1CCOCC1)c1ccc2c(c1)OCCO2	inconclusive: 7.3 µM [inhibitor, partial curve]
O=C(c1ccc(Cl)cc1)c1c[nH]c(C(=O)NNc2cccc(Cl)n2)c1	inconclusive: 22.4 µM [inhibitor, partial curve, poor fit]
Cc1cc(F)ccc1NC(=O)CN(C)S(=O)(=O)c1ccc(C(=O)N2CCOCC2)s1	inactive
COc1ccc(OC)c(C2=Nn3c(nnc3-c3cc(C)[nH]n3)SC2)c1	inconclusive: 10 µM [inhibitor, partial curve, poor fit]
CN(C)c1ccccc1C(=O)N1CCCC(C(=O)c2ccc3ccccc3c2)C1 (centres undefined)	inconclusive: 35.5 µM [inhibitor, single point]
NS(=O)(=O)c1cccc(NC(=O)CSc2nc3ccccc3c(=O)n2CCCN2CCOCC2)c1	inconclusive: 2.51 µM [inhibitor, partial curve, poor fit]
O=C(Nc1nncs1)c1cc(-c2ccncc2)nc2ccc(Cl)cc12	inactive
CC(=O)Nc1ccc(NC(=O)CSc2ccc(-c3ccc4c(c3)OCO4)nn2)cc1	inactive
COc1ccc(C(=O)CSc2nc3ncccc3[nH]2)cc1OC	inactive
N=c1c(C(=O)NCc2ccc(F)cc2)cc2c(=O)n3ccccc3nc2n1CCCN1CCOCC1	inactive
CCc1cc2c(=O)c(-c3ccon3)c(N)oc2cc1OC	inconclusive: 0.58 µM [activator, full curve, poor fit]
CCOc1cccc(C2c3[nH]c4ccccc4c3CCN2C(=O)CCC2CCCC2)c1 (centres undefined)	inconclusive: 10 µM [inhibitor, partial curve, poor fit]
c1coc(C2=Nc3cccc4cccc(c34)N2)c1	inactive
Cc1cccc2sc(N(CCN(C)C)C(=O)c3cc(Cl)sc3Cl)nc12	inactive

Molecules shown so far that have an aryl thioether with sulfur outside any ring (3):
Structure (SMILES)	Potency
NS(=O)(=O)c1cccc(NC(=O)CSc2nc3ccccc3c(=O)n2CCCN2CCOCC2)c1	inconclusive: 2.51 µM [inhibitor, partial curve, poor fit]
CC(=O)Nc1ccc(NC(=O)CSc2ccc(-c3ccc4c(c3)OCO4)nn2)cc1	inactive
COc1ccc(C(=O)CSc2nc3ncccc3[nH]2)cc1OC	inactive

Following part

Structure (SMILES)	Potency
Cc1ccc(C(C(=O)NCc2ccc(F)cc2)N(Cc2ccco2)C(=O)c2snc(C(N)=O)c2N)o1 (centres undefined)	inconclusive: 11.2 µM [inhibitor, partial curve]
CCC(Sc1nc2nccnc2c(=O)n1Cc1ccc(F)cc1)C(=O)NC1CCCCC1 (centres undefined)	inactive
O=CNC1CCCc2c1[nH]c1ccc(Cl)cc21 (centres undefined)	inconclusive: 11.2 µM [inhibitor, partial curve, poor fit]
CCN(CC)c1ccc(N=Cc2c(O)n(-c3ccc(OC)cc3)c(=O)[nH]c2=O)cc1	inconclusive: 7.94 µM [inhibitor, full curve, poor fit]
CC1(C)CCCC2=C1CC1C(=O)N(O)C(=O)C1C2 (centres undefined)	inconclusive: 32.6 µM [activator, partial curve, poor fit]
COc1ccc(O[C@H]2C=C[C@@H](c3ccccc3)O[C@@H]2CO/N=C(\C)CCC(=O)OC[C@H]2O[C@H](c3ccccc3)C=C[C@@H]2Oc2ccc(OC)cc2)cc1	inconclusive: 1.84 µM [inhibitor, full curve]
COc1ccc(-c2nc(SCC(=O)c3ccc(OC)c(Br)c3)n[nH]2)cc1	inactive
CCC(C)n1c(=O)c(C(=O)Nc2ccccc2S(N)(=O)=O)c(O)c2ccccc21 (centres undefined)	inconclusive: 28.2 µM [inhibitor, single point]
CCCCOc1ccc(C2C3CN(C(=O)OCC)CC=C3C(C#N)=C(N)C2(C#N)C#N)cc1OC (centres undefined)	inconclusive: 0.82 µM [inhibitor, full curve, poor fit]
Cc1cc2nc(C)n(CCCNC(=O)Nc3cccc4ccccc34)c2cc1C	inconclusive: 18.3 µM [inhibitor, partial curve, poor fit]
COc1ccc(/C=C/C2=NN(C)C(=O)CC2)cc1	inconclusive: 35.5 µM [inhibitor, single point]
S=C(NNC(=S)NC1CC2C=CC1C2)NC1CC2C=CC1C2 (centres undefined)	inconclusive: 5.62 µM [activator, partial curve, poor fit]
Cc1nnc(N2C(=O)C(O)=C(C(=O)c3ccco3)C2c2cccc3ccccc23)s1 (centres undefined)	inactive
O=C(CN1CC(c2ccccc2)CC1=O)Nc1cccc(F)c1 (centres undefined)	inconclusive: 0.0065 µM [inhibitor, full curve, poor fit]
CCn1cc(S(=O)(=O)Nc2cc(C)ccc2F)cn1	inconclusive: 22.4 µM [activator, partial curve, poor fit]
CCOC(=O)c1sc2ccccc2c1S(=O)(=O)N1CCN(c2cccc(OC)c2)CC1	inconclusive: 11.2 µM [inhibitor, partial curve]
CCOC(=O)c1sc2ccccc2c1S(=O)(=O)N1CCN(c2cccc(C)c2C)CC1	inconclusive: 8.91 µM [inhibitor, partial curve, poor fit]
COc1ccc(CNC(=O)CC2C(=O)NCCN2C2Cc3ccccc3C2)cc1 (centres undefined)	inconclusive: 35.5 µM [inhibitor, single point]
Cn1ncc(Cl)c1C(=O)N/N=C/c1cc2c(cc1[N+](=O)[O-])OCO2	inactive
CCCOc1ccc(-c2nc(N)n[nH]2)cc1	inconclusive: 29.1 µM [inhibitor, single point]
CSc1nc(-c2ccccc2)nn1C(=O)c1ccc(C)cc1	inconclusive: 35.5 µM [activator, single point]
CSc1ccccc1C(=O)C1CCCN(Cc2cnn(-c3ccccc3)c2)C1 (centres undefined)	inconclusive: 22.4 µM [inhibitor, partial curve, poor fit]

Reprinted at random: 2 records from the list, in no set order.
Structure (SMILES)	Potency
COc1ccc(/C=C/C2=NN(C)C(=O)CC2)cc1	inconclusive: 35.5 µM [inhibitor, single point]
NS(=O)(=O)c1cccc(NC(=O)CSc2nc3ccccc3c(=O)n2CCCN2CCOCC2)c1	inconclusive: 2.51 µM [inhibitor, partial curve, poor fit]

(next part)

Structure (SMILES)	Potency
Cc1cc(C)c2c(=O)cc(C(=O)Nc3ccc(S(=O)(=O)N(C)Cc4ccccc4)cc3)oc2c1	inactive
Cn1c(=O)n(C)c2cc([N+](=O)[O-])c(N3CCN(S(=O)(=O)c4ccccc4)CC3)cc21	inconclusive: 35.5 µM [inhibitor, single point]
O=C(/C=C/c1ccccc1Cl)Nc1ccccc1	inconclusive: 11.2 µM [inhibitor, single point]
COc1ccc(NC(=O)Cn2c(C)cc(=O)c3ccccc32)cc1	inconclusive: 18.4 µM [inhibitor, partial curve, poor fit]
COc1ccc(C(=O)Nc2ccc(OCc3cc(=O)n4ccsc4n3)cc2)cc1OC	inconclusive: 14.1 µM [activator, single point]
COc1ccc2cc(C(=O)NCc3ccc4c(c3)CCN4C(=O)c3ccccc3)[nH]c2c1	inconclusive: 35.5 µM [inhibitor, single point]
O[C@@H]1CN(Cc2cccs2)[C@@H](c2ccc(Cl)cc2)C[C@@H]1n1cc(-c2ccc(F)cc2)nn1	inconclusive: 3.96 µM [inhibitor, full curve, poor fit]
CCn1c(=O)cc(SCC(=O)NCc2ccccc2OC)c2ccccc21	inconclusive: 1.12 µM [inhibitor, full curve, poor fit]
O=C(O)c1cccc2c1C(=O)N(c1ccc3c(c1)Cc1ccccc1-3)C2=O	inactive
COc1ccc(CNCCc2c[nH]c3ccccc23)c(OC)c1OC	inactive
COc1cc(CCC(=O)Nc2ccc(C)c(S(=O)(=O)N3CCCCCC3)c2)cc(OC)c1OC	inconclusive: 25.1 µM [inhibitor, single point]
Cc1cccc(C(=O)NC(=O)Nc2ccc(-c3cc(C(F)(F)F)nn3-c3ccccc3)cc2)c1	inconclusive: 0.562 µM [inhibitor, full curve, poor fit]
CCCCCCCCC[n+]1cccc2c3ccccc3ccc21	active: 2.82 µM
CCc1ccc(CNC(=O)c2cnc3sc(N4CCCCC4)nn3c2=O)cc1	inconclusive: 1.12 µM [inhibitor, partial curve, poor fit]
CC1CCN(C(=O)CSc2nc(C3CC3)nc3ccccc23)CC1	inconclusive: 6.31 µM [activator, partial curve, poor fit]
CCc1ccc(S(=O)(=O)Nc2cccc(-c3ccc(N4CCC(C)CC4)nn3)c2)s1	inconclusive: 25.1 µM [inhibitor, single point]
O=S(=O)(NC1c2cccc3cccc(c23)C1N1CCNCC1)c1ccc(Cl)cc1 (centres undefined)	inconclusive: 35.5 µM [inhibitor, single point]
O=C(COC(=O)c1ccc(Cl)nc1)Nc1c(Cl)cccc1C(F)(F)F	inconclusive: 35.5 µM [inhibitor, single point]
C[C@H]1[C@@H](c2ccccc2)Oc2c(Cl)cccc2S(=O)(=O)N1Cc1ccc(Cl)cc1	inactive
COc1ccc2c(c1)CC/C(=C\Nc1ccc3c(c1)OCO3)C2=O	inconclusive: 32.6 µM [inhibitor, single point]
